The supplement of paper PMC3334620
Over roughly 33,000 sequences, “E-score (-0.5 to 0.5)” has its median near -0.0014; the highest 2% begin near 0.25. Some of the results follow.

Target: T1, Cad1 (UniProt P24813)
T1 sequence: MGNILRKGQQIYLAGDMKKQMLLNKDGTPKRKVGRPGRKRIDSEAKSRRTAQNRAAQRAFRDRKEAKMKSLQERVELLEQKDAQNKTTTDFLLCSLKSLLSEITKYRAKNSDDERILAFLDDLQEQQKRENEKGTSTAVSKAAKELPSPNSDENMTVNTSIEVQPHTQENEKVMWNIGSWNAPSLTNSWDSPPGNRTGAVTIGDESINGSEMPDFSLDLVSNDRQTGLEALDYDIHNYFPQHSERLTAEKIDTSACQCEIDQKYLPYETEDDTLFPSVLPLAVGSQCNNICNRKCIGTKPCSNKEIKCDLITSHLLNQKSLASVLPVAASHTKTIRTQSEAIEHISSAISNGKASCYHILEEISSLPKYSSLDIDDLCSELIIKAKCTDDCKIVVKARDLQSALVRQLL
Experiment: PBM E-score (8-mer binding enrichment) (E-score (-0.5 to 0.5)); higher = stronger / more preferred TF binding
Details: protein concentration: 100 nM; construct: GST-full length
Summary of the method: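 GST-tagged yeast TFs (full-length or DNA-binding domain) were made by PURExpress in vitro transcription/translation and applied at about 100-200 nM to universal all-10-mer Agilent arrays. The arrays were made double-stranded by primer extension, on fresh or once-stripped slides. Bound protein was detected with fluorescent anti-GST, and scans were normalised with masliner. Each ungapped eight-base word, pooled with its reverse complement, received an E-score (modified Wilcoxon-Mann-Whitney statistic) from the Universal PBM Analysis Suite.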

| Sequence | PBM E-score |
| --- | --- |
| CCAAATGC | -0.0453 |
| AGTACTAT | -0.0502 |
| CGCTATAA | 0.0164 |
| TCGGGTCA | 0.134 |
| AGCCAGTG | -0.142 |
| ATCCGCCG | 0.193 |
| AGTTGTTA | 0.16 |
| AAGCGTGT | -0.0443 |
| GACCAAGC | 0.0511 |
| AATAACAC | 0.0256 |
| ACATCAAC | 0.118 |
| AAACCCAG | 0.0892 |
| CCACCAAG | -0.179 |
| ATAGCCAG | 0.00967 |
| GAAAAGGA | -0.123 |
| GGACAAAC | 0.00662 |
| AACATCCA | 0.00173 |
| ATCAATGC | 0.0236 |
| TCCTGCCA | -0.0184 |
| GAGCTAAA | -0.167 |
| ATTTGTGA | 0.163 |
| AAATTGAT | 0.153 |

5 records picked at random from the list so far:

| Sequence | PBM E-score |
| --- | --- |
| AACATCCA | 0.00173 |
| ATAGCCAG | 0.00967 |
| ATCCGCCG | 0.193 |
| AAGCGTGT | -0.0443 |
| CCACCAAG | -0.179 |

Carrying on.

| Sequence | PBM E-score |
| --- | --- |
| CCTGATCG | -0.0975 |
| ACGGGTCA | -0.228 |
| ATGGAAAA | 0.0253 |
| ACCTCCAA | -0.0902 |
| ACAACTGC | 0.106 |
| AAATACAT | 0.0844 |
| ATGATCTG | 0.146 |
| AGGGACCT | -0.155 |
| CCGGGAGC | -0.188 |
| CAACATCC | -0.179 |
| CGACAAGC | -0.247 |
| CGCTGTGC | -0.117 |
| CAAACCAC | 0.00562 |
| ACATCAAT | 0.0848 |
| GAAGTTAA | -0.0192 |
| CCAAAGTA | -0.154 |
| AGGCTGAG | -0.0706 |
| ATTGCAAT | 0.182 |
| ATCGACAA | 0.105 |
| AGGATGGA | -0.166 |
| AGTACCCC | -0.211 |
| ATATTAGG | 0.248 |

| Sequence | PBM E-score |
| --- | --- |
| GGATAACA | 0.0152 |
| ACGTTCAA | 0.0746 |
| AGCATGTC | -0.127 |
| GCCTATCC | -0.085 |
| CCCTAGAG | -0.122 |
| ATCAAAGA | 0.0834 |
| GATTCGGC | 0.113 |
| TAACGACA | 0.0499 |
| GTAGCTCA | -0.0109 |
| AATCGAAC | 0.0215 |
| AGCCTGCG | -0.155 |
| GAGTGGTA | -0.0468 |
| GTCCCCAC | -0.344 |
| ATGTCAAT | 0.0742 |
| ATCCCATC | -0.0629 |
| ATTTGGGA | 0.0242 |
| ACGTGCCT | 0.00963 |
| GTTACAAC | 0.126 |
| ATCTTCGG | 0.196 |
| AAACTAAT | 0.36 |
| CGGACCCC | -0.206 |
| ACATCAGC | -0.0424 |

| Sequence | PBM E-score |
| --- | --- |
| GACTAGAA | 0.0424 |
| ATCGGCGG | 0.12 |
| CTTGGGTA | -0.0741 |
| GGACTGCA | -0.026 |
| GTATCAGA | -0.0422 |
| CAGTTGTC | 0.0955 |
| TATAGGAA | 0.127 |
| GCCACTCA | 0.0465 |
| GACTCACC | -0.189 |
| CTTCGAAC | 0.159 |
| CACAACGA | 0.0531 |
| CAAGGTGG | -0.0528 |
| CGGTTTCA | 0.0848 |
| CGCTGCCC | -0.213 |
| CCTTGTGA | 0.00636 |
| AAATCGCA | 0.0759 |
| AGCTAAGG | -0.145 |
| ACCACCAC | 0.143 |
| AGAAATTC | 0.13 |
| AATTATTC | 0.245 |
